The exact form of at least one protein or probe is not confirmed. Weaker means in comparison with the reference protein, sequence or condition of that experiment. At least one verdict was read from the data and is not stated in words by the source. Protein sequences can lack the tags named with them.
Biological target: T1, VRK1 (vaccinia-related kinase 1), recombinant (UniProt Q99986)
T1 sequence (looked up, limits assumed): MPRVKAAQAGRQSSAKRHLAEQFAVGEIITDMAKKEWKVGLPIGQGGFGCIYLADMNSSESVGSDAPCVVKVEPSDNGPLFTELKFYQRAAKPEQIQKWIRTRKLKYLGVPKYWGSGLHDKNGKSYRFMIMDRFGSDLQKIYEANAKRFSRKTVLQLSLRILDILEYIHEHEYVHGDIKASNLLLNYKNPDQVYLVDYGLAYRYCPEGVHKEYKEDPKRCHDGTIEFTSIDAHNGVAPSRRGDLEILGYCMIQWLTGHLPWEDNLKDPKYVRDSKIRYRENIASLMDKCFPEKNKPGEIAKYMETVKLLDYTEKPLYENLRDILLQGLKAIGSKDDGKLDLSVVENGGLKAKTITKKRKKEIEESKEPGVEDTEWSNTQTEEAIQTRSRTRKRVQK
Assay: ELONA
Settings: 10 mM sodium phosphate, 0.15 M NaCl, pH 7.5, 1 mM MgCl2, 0.2% BSA, 37 C, 1 h, aptamers denatured at 95 C 10 min then ice 10 min, VRK1 coated on plate (20 or 200 ng/well), recombinant protein, protein details: 6xHis

[1] = 80 nM, label: 5' digoxigenin on both chains
[2] = 40 nM PCR-labeled chain, label: 5' digoxigenin, single-stranded DNA, letters put together from the description

TCACCAGCACGTCCATGAGGCAAGAAACCCACCCACCGCCCCCATCCGCCGTCCCTGTAGTGGCATCCGAGCGT [apVRKR28 (V#R28)]
binding result (40 nM synthetic aptamer, label: digoxigenin (5' when made with primer R5), single-stranded DNA, letters put together from the description): binds more weakly

ACGCTCGGATGCCACTACAGGGGGCAGGGATGGAAAGTAAGATGTGTGAGGCTGCCTCATGGACGTGCTGGTGA (double strand) [apVRK44 (F+R chains)]
binding result [1]: binds more weakly

ACGCTCGGATGCCACTACAGCCCATGAATGTTTCCTTAGTTACGCATTTCTTCGCCTCATGGACGTGCTGGTGA (double strand) [apVRK21; 22 (F+R chains)]
binding result [1]: binds more weakly

ACGCTCGGATGCCACTACAGCCCTAATCTGTCGCTTTGATTTTTTTTACCTCTGCCTCATGGACGTGCTGGTGA (double strand) [apVRK42 (F+R chains)]
binding result [1]: binds more weakly

TCACCAGCACGTCCATGAGGGCACTTCCCACCCTACCCACCCCCCACCTCGCAACCTGTAGTGGCATCCGAGCGT [apVRKR33 (V#R33)]
binding result [2]: binds more weakly

ACGCTCGGATGCCACTACAGCGAGTACGTTGAACTTATCTCATCCCTTCTTTTGCCTCATGGACGTGCTGGTGA (double strand) [apVRK13 (F+R chains)]
binding result [1]: binds more weakly

TCACCAGCACGTCCATGAGGCCGCCGACCCCCCGCTTACTTTCCCCCCCCCTCCCTGTAGTGGCATCCGAGCGT [apVRKR8 (V#R8)]
binding result [2]: binds more weakly

ACGCTCGGATGCCACTACAGGAGGGCGGGTGGGGGGGGGCTGGCGGTGGTCTGGCCTCATGGACGTGCTGGTGA (double strand) [apVRK27 (F+R chains)]
binding result [1]: binds more weakly

ACGCTCGGATGCCACTACAGGGGGCGTGGGATGCCACATTCTTTAAGTTGGGTGCCTCATGGACGTGCTGGTGA (double strand) [apVRK41 (F+R chains)]
binding result [1]: binds more weakly

— PMC8156982, “DNA Aptamers against Vaccinia-Related Kinase (VRK) 1 Block Proliferation in MCF7 Breast Cancer Cells”
